In patent US20030207812A1, “Cd45 inhibitors” (priority 2002, published 2003):
At least one structure is not confirmed: it was looked up by name or label, or the drawing left a doubt. Where a SMILES comes first, the peptide text is derived from it. The star is where a group is joined. X1 = O=C1C(=O)c2cc(N*)ccc2-c2ccccc21

Tests used:
[1] = biological target: T1, CD45 (Homo sapiens, UniProt P08575); test: Phosphatase assay using pNPP as substrate; format: biochemical; conditions: read-out: pNPP IC50; pH 7
T1 construct: incubating the cytosolic portion of CD45 with the compounds and p-nitrophenyl phosphate (pNPP); purchased BIOMOL (Plymouth Meeting, Pa.)
T1 sequence (P08575 599-1306 limits assumed): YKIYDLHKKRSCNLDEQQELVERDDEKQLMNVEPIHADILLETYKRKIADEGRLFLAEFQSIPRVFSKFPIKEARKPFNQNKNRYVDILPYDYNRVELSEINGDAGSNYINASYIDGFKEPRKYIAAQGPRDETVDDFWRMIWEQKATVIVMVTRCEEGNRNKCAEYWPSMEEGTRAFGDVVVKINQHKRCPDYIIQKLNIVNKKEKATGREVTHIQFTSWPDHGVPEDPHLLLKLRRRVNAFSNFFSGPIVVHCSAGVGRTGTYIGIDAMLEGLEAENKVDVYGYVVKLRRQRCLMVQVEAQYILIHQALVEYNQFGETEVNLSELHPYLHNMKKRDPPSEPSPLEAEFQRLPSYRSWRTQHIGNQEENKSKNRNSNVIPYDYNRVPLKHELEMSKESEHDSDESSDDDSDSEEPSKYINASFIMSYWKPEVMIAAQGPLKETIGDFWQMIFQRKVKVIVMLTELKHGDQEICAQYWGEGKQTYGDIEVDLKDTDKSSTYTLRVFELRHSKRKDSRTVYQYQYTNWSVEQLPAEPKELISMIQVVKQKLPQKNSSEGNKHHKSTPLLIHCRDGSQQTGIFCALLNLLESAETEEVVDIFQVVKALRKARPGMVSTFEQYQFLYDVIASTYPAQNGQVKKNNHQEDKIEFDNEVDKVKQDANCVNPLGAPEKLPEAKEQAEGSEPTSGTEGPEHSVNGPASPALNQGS
Protocol: Phosphatase assay using pNPP as substrate:
CD45 enzyme was obtained from BIOMOL (Plymouth Meeting, Pa.). Phosphatase activity was assayed in a buffer containing final concentrations of 25 mM imidazole at pH 7.0, 50 mM NaCl, 2.5 mM ethylenediaminetetraacetic acid (“EDTA”), 5 mM dithiothreitol (“DTT”) and 10 μg/mL bovine serum albumin (“BSA”) using pNPP as a substrate.

[2] = biological target: T1, CD45; test: Phosphatase assay using lck 10-mer as substrate; format: biochemical; conditions: lck carboxy-terminal peptide TEGQpYQPQP substrate, pH 7.2, read-out: Ick IC50
Protocol: Phosphatase assay using lck 10-mer as substrate:
Phosphatase activity was assayed in 96 well plates in a buffer containing final concentrations of 25 mM HEPES at pH 7.2, 5 mM DTT and 10 μg/mL BSA using the lck carboxy-terminal peptide TEGQpYQPQP as the substrate (Cho, H., Krishnaraj, R., Itoh, M., Kitas, E., Bannwarth, W., Saito, H., Walsh, C. T. 1993. Substrate specificities of catalytic fragments of protein tyrosine phosphatases (HPTPb, LAR, and CD45) toward the phosphotyrosylpeptide substrates and thiophosphotyrosylated peptides as inhibitors. Protein Science 2:977-984). Compounds were tested in a range from 30 to 0.01 μM in a final concentration of 5% DMSO. Enzyme was incubated with substrate with or without compound, at room temperature for 1.5 h. At the end of the incubation period, BIOMOL “Green Reagent” (BIOMOL, Plymouth Meeting, Pa.) was added to each well, the plates incubated at room temperature for 30 min and absorbance read at 620 nm.

CC(=O)N[C@@H](CCC(=O)O)C(=O)NCC(=O)N[C@@H](CCC(N)=O)C(=O)N[C@@H](CC(=O)Nc1ccc2c(c1)C(=O)C(=O)c1ccccc1-2)C(=O)O [Example 58] (Ac-EGQD(X1)-OH)
IC50 [1]: 1.5 µM
IC50 [2]: 17.8 µM

CC(=O)N[C@@H](CCC(N)=O)C(=O)N[C@@H](CC(=O)Nc1ccc2c(c1)C(=O)C(=O)c1ccccc1-2)C(=O)O [Example 59]
IC50 [1]: 1.1 µM
IC50 [2]: 5.8 µM

CC(=O)N[C@@H](Cc1ccccc1)C(=O)N[C@H](C(=O)N[C@@H](C)C(=O)N[C@H](C(=O)N[C@@H](CCC(=O)O)C(=O)NCC(=O)N[C@@H](CCC(N)=O)C(=O)N[C@@H](CC(=O)Nc1ccc2c(c1)C(=O)C(=O)c1ccccc1-2)C(=O)O)[C@@H](C)O)[C@@H](C)O [Example 62] (Ac-FTATEGQD(X1)-OH)
IC50 [2]: 15.3 µM
